Measurements published in publication PMC10163288.
Some of the results follow.

B1: il10ra_site1_sap_19_mot_HHH_b2_02053_af2_000000006_0001_3_19_H_._HHH_b1_07370_0001_0000100001_0000002_0_0001 (protein)
chain: SSSSSDEEVEELLKEAEELAEEGNPEEAAKVLLEAVRLAIQAGDEEALQKVWEVVKELAKSSSSS
B2: il10ra_site1_sap_21_mot_HHH_b2_01447_af2_000000258_0001_1_20_H_._HHH_b1_00686_af2_0001_0000100006_0000001_0_0001 (protein)
chain: SSSSREEEIMARFQVMALVQTFNLSEEQEKLLEELAKELLEEGVDPREIAVRLFELARRLGSSSS
B3: il10ra_site1_sap_22_mot_HHH_b2_01729_af2_000000109_0001_43_56_H_._HHH_b1_03556_0001_0000200009_0000001_0_0001 (protein)
chain: SSSSSDEEELEELIRRIEELIEEGDDEEAVKVLQKLSHLAFRLNDQEVLEIILELAKRLRSSSSS
B4: il10ra_site1_normal_mot_HHH_b2_00475_000000107_0001_44_57_H_._HHH_b1_04775_af2_0001_0000100002_0000002_1 (protein)
chain: SSSSDEEQKVSQLLFRAVRLYYEGNPEEAEKLVEEALEIAKELNDPELEEYARIALHFIRNSSSS
B5: il10ra_site1_normal_mot_HHH_b1_06914_000000280_0001_1_18_H_._HHH_b1_02402_0001_0000300025_0000002_0_af2pred_0001 (protein)
chain: SSSSDRREIVRLSRKAIELLAEGDDEEARRVVEEAEEIAEENNNEVARVVLEFLLELIEKNSSSS
B6: il10ra_site1_sap_17_mot_HHH_b2_02497_000000141_0001_1_20_H_._HHH_b1_05715_af2_0001_0000500024_0000001_0_0001_af2pred_0001 (protein)
chain: SSSSSEIEEEVEELLEQAKRIDDLARRTYVLIRAYALAYKNNNEELLRKVREIAIKLSEESSSSS
B7: il10ra_site1_normal_mot_HHH_b2_02337_000000026_0001_38_52_H_._HHH_b2_06018_0001_0000100009_0000001_0 (protein)
chain: SSSSSDEEELEELLEELRRLVEEGDRERAAELAQRILRLAAELQDQEALQLLWKLVQELASSSSS
B8: il10ra_site1_sap_20_mot_HHH_b1_02397_af2_000000085_0001_39_57_H_._HHH_b2_04780_af2_0001_0000200009_0000002_0_0001_af2pred_0001 (protein)
chain: SSSSSDREERLKQVLELLRRILESDDPEEREELLEEAERLIEEAGNELLRVLLEFLRKALSSSSS
B9: il10ra_site1_normal_mot_HHH_b2_00643_000000120_0001_23_40_H_._HHH_b2_03794_0001_0000200009_0000001_0 (protein)
chain: SSSSDAIQEAWRAVKEAAELFQRGDPEEAEQLLEEALERLEELGNEIAVLQVEHLLRAIENSSSS
B10: il10ra_site1_sap_16_mot_HHH_b1_03763_000000209_0001_22_38_H_._HHH_b2_07824_0001_0000100003_0000002_0_0001_af2pred_0001 (protein)
chain: SSSSDEERREYHREIEELMEKGDPRKAAKLLSELFELAAREGDEEMIKLVAELARILLELVSSSS
B11: il10ra_site1_normal_mot_65b8060e20531850bca9f2e11f97d954_0001_af2_000000137_0001_17_31_H_._HHH_b1_06320_0001_0000300019_0000002_0 (protein)
chain: SSSSDQEEERALELIVRISRLLAEGDPERARELLEELEELVEELGDPKLRLSVRFLKALASSSSS
B12: il10ra_site1_sap_20_mot_HHH_b1_02997_000000220_0001_39_52_H_._HHH_b1_05632_af2_0001_0000100001_0000004_0_0001 (protein)
chain: SSSSSNEEVYELIQEALELLANGDPEEAERVLEEAQEIAEELGSPVMRHAVEYALKQVRGSSSSS
B13: il10ra_site1_sap_22_mot_HHH_b2_02736_000000092_0001_22_38_H_._HHH_b1_07250_0002_0000100006_0000001_0_0001 (protein)
chain: SSSSDEEVIRLIMKAAHLLIQGDPEQARELVEEAKELAEELNDPELERLVEIILRAVEAASSSSS
B14: il10ra_site1_normal_mot_8756ee2cf497b5429c717dfc0c0bcfd6_0001_000000186_0001_1_13_H_._HHH_b1_07345_af2_0001_0000300018_0000001_0 (protein)
chain: SSSSDEELEELFKLLEKIAKLLHEGDHEEAERLVEEAEELAKELGNDVALFQLEYLQRHINSSSS
B15: il10ra_site1_sap_11_mot_HHH_b2_06600_af2_000000211_0001_1_16_H_._HHH_b2_08166_af2_0001_0000400020_0000002_0_0001 (protein)
chain: SSSSSRYLELTIRFIEMLLEDGDTEAARFFIKALKDIAKRNNDPEAEERAEELERIVEELSSSSS
B16: il10ra_site1_sap_20_mot_HHH_b1_04100_af2_000000180_0001_1_19_H_._HHH_b1_02064_0001_0000300030_0000001_0_0001 (protein)
chain: SSSSDKAEELAERVIEELEELRRRGDAEEVYRLIKEAYEELLELNDPEAVRLLLRFLKQWTSSSS
B17: il10ra_site1_sap_17_mot_9368472692dc9678e81f248f6367350b_0001_000000260_0001_20_35_H_._HHH_b1_01010_0001_0000500026_0000002_0_0001_af2pred_0001 (protein)
chain: SSSSDEEVQRALELAAKASRVAHERGDAELSKELDELALRLFREGDPRLAEELRELAEKILSSSS
B18: il10ra_site1_normal_mot_HHH_b1_08176_000000188_0001_1_20_H_._HHH_b2_01313_af2_0001_0000300007_0000001_0 (protein)
chain: SSSSDQEALELAQRAFRAALRGNIEEAEELAEEALKIAQELNNERLARQIEQLLQALRAEGSSSS
B19: il10ra_site1_sap_20_mot_HHH_b1_03327_000000294_0001_1_19_H_._HHH_b2_05924_af2_0001_0000200004_0000001_0_0001 (protein)
chain: SSSSSDDQEVLEALREAFRLALRGNPEEAEKVLEEAEELAERAGDERLLEMIRNLLETLRSSSSS
B20: il10ra_site1_normal_mot_HHH_b2_05984_000000071_0001_38_52_H_._HHH_b1_05086_0001_0000100005_0000001_0_af2pred_0001 (protein)
chain: SSSSDEEVRRRAREIYEELQRLIEEGDEEEVRRLLEELIELARKGNDREAIRLAARILKLLSSSS
B21: il10ra_site1_sap_22_mot_HHH_b1_01821_000000158_0001_23_39_H_._HHH_b1_07966_af2_0001_0000300009_0000001_0_0001 (protein)
chain: SSSSDEEARHLLKLTLKFARRIQDEEAARFLVRAAQQIAKREGDEELLEEIERLLEELENSSSSS
B22: il10ra_site1_sap_9_mot_HHH_b1_06819_af2_000000053_0001_23_38_H_._5e49283646ac2375ff6560514cd19812_0001_0001_0000100001_0000001_0_0001_af2pred_dldesign_0_af2pred (protein)
chain: SSSSAAEEARAQALYERAVALAKAGKPEEAQEVLQELVDLANEKECLAAAQAANELLKLLSSSSS
B23: il10ra_site1_sap_18_mot_HHH_b2_00800_af2_000000047_0001_1_20_H_._HHH_b2_01695_0001_0000300037_0000002_0_0001 (protein)
chain: SSSSDAKEEAEELLEEAERLIEEGDPREAIRVLARAVALAFEGQDRELLQEIWRLVQELYSSSSS
B24: il10ra_site1_normal_mot_HHH_b1_02397_af2_000000085_0001_39_57_H_._HHH_b2_05327_0001_0000200010_0000002_0 (protein)
chain: SSSSSEEEEELEELLRRIEEAVRRGDPELFARLVQELLRLAFRLSDQEVLQELWELFRRAASSSS

target: il10ra, Q13651; test: yeast display titration

Apparent Kd, inactive:
B1 no binding seen, B2 no binding seen, B3 no binding seen, B4 no binding seen, B5 no binding seen, B6 no binding seen, B7 no binding seen, B8 no binding seen, B9 no binding seen, B10 no binding seen, B11 no binding seen, B12 no binding seen, B13 no binding seen, B14 no binding seen, B15 no binding seen, B16 no binding seen, B17 no binding seen, B18 no binding seen, B19 no binding seen, B20 no binding seen, B21 no binding seen, B22 no binding seen, B23 no binding seen, B24 no binding seen
